# Laboratory results reported in paper PMC10682436.
# Results are given in words; binding and its absence hold for the method and conditions named. Binding seen in cells or lysates may run through a third protein. Here binding means that the protein was enriched with, or labelled near, the bait; the list need not be complete.
# Target: FLAG-tagged OVOL2 stably expressed in EL4 T cells (mouse) (UniProt Q8CIV7)
# Test: affinity purification with mass spectrometry; anti-FLAG M2 agarose IP (4 h, 4 °C) from EL4 T cells stably expressing FLAG-tagged OVOL2, with (20 or 100 unit) or without DNase I; washed five times in Nonidet P-40 lysis buffer; eluted with 3xFlag peptide; LC-MS/MS; three independent analyses; empty vector control
row,binding,Binder
1,binds,"high mobility group 20 A (HMG20A), endogenous in EL4 T cells (protein, UniProt Q9DC33 1-346) MESLMASSTLPPLFADEDGSKESNDLATSGLTHPEGPYGSAATSTTNPEFVEDLSQGQLLQSEASNAVEGNEQRPEDEQRSKRGGWSKGRKRKKPLRDSNAPKSPLTGYVRFMNERREQLRAKRPEVPFPEITRMLGNEWSKLPPEEKQRYLDEADRDKERYMKELEQYQKTEAYKVFSRKTQDRQKGKSHRQDAARQATHDHEKETEVKERSVFDIPIFTEEFLNHSKAREAELRQLRKSNMEFEERNAALQKHVESMRTAVEKLEVDVIQERSRNTVLQQHLETLRQMLTSSFASMPLPGSGEIPTVDTIDSYMNRLHSIILANPQDNENFIATVREVVNRLDR"
2,binds,"genetic suppressor element 1 (GSE1), endogenous in EL4 T cells (protein, UniProt Q3U3C9 1-1213) MKGMSHEPKSPSIGMLSTATRTTATVNPLTPSPLNGALVPTGSPATSSTLSAQAAPSSSFAAALRKLAKQAEEPRGSSLSSESSPVSSPATNHSSPASTPKRVPMGPIIVPPGGHSVPSTPPVVTIAPTKTVNGVWRSESRQDSGSRGSSSGRERLLVEPPLAQEKAAGPAIPSHLLSTPYPFGLSPGSVVQDSRFQPLNLQRPVHHVVPPSTVTEDYLRSFRPYHTAEDLRMSSLPPLGLDPATAAAYYHPSYLAPHPFPHPAFRMDDSYCLSALRSPFYPIPTPGSLPPLHPSAMHLHLSGVRYPPELSHSSLAALHSERMSSLSAERLQMDEELRREREREREREREADREREKEREREQREKEREKELEREREKERERELERQREQRAREKELLAAKALEPTTFLPVAELHGLRGHSTEERPKPSEQLTPTRAEKLKDVGLQAPKPVQHPLHPVPAPHHTVPSLISSHGIFSLPGSSATTALLIQRTNEEEKWLARQRRLRQEKEDRQSQVSEFRQQVLEQHLDLGRPLVPTEAEHRPESTRPGTNRHEQGSREPPQHFGGPPPLISPKPQQHTVPTALWNPVSLMDNALETRRAESHSLHSHPTAFEPSRQAAVPLVKVERVYCSEKAEEPRKREATPLDKYQPPPPPPPPREAGSLEPQTFPHGPGPFLTELEKSTQTILGQQRPSLSQATSFGELSGPLKPGSPYCHPTARGPDPAYIYDEFLQQRRKLVSKLDLEERRRREAQEKGYYYDLDDSYDESDEEEVRAHLRCVAEQPPLKLDTSSEKLEFLQLFGLTTQQQKEELVAQKRRKRRRMLRERSPSPPAVQCKRQTPSPRLALSTRYSPDEMNNSPNFEEKRKFLTFFNLTHISAEKRKDKERLVEMLRAMKQRALSAADSVTNSSRDSPPVSLSEPATQPAPLETDQPVGVPASLSDVPKTTETGRLEQLRPQELLRVQEPAPPSGEKARLSEAPGGKKSLSMLHYLRGAAPKDIPVPLSHSINGKSKPWEPFVAEEFAHQFHESVLQSTQKALQKHKGNSALLSAEQSHKVDTAIHYNIPELQSSSRVPLPQHNGQQEPPMGRKGPPMQEADQDSEEDSEEDSEEEAEEAPRRQWQGIEAIFEAYQEHIEEQNLERQVLQTQCRRLEAQNYSLSLTAEQLSHSMAELRSQKQKMVSERERLQAELDHLRKCLALPTMHWPRGYFKGYPR"
